# Reference: PubChem BioAssay AID1508600 (Functional Genomics Laboratory (NCATS/FGL), 2020)
# In all, about 53,000 sequences went through this assay and about 3,700 (7%) were called active.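 How the source made its calls: active means gene knockdowns whose robust z-score for IL-1 alpha signal is at least 2 or at most -2, so actives lie on both sides; inactive means the rest.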 Some of the results follow.
# Test: Components of the Cytosolic LPS Sensing Pathway: Gene Identification via Genome-wide siRNA Screen;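 further: robust z of the log signal after scaling to non-targeting control siRNA wells of the plate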
# Conditions: RAW264.7 macrophages, IL-1a HTRF, actives lie on both sides, screened at 100 nM (by protocol), cells primed 5 h with Pam3CSK4 first
# Summary of the method: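 RAW264.7; siRNA 100 nM final, RNAiMAX, 48h 37 degrees C; Pam3CSK4 5 h; LipidA + TransIT-TKO 24 h; IL-1a HTRF; CellTiter-Glo viability; robust z vs negative-control median.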
row,Sequence,z-score
1,GCUGUUAGGUUCAUUACCATT against Herc2,inactive: -0.117
2,GGAGACCAUCAUGUCUUUATT against Olfr378,inactive: 0.383
3,CCCACUUUUUUUUAGACUGTT against Slc52a3,inactive: 0.278
4,GGAAAGGACGACAUACAGGTT against Zfp12,inactive: -0.213
5,CCAUUAUCCUGGUGUGUAUTT against Olfr1362,inactive: -0.0735
6,GGAGGCUAGACCUGUUUUUTT against 4932414J04Rik,inactive: -0.743
7,GAAACUUUGAGUCCUCCAGTT against Dop1b,active: 3.22
8,GGUAGACCGUCCGAAAAGATT against D11Wsu47e,inactive: -1.3
9,GGCCAGUGUUACUGAGGAATT against 1700037C18Rik,inactive: -0.797
10,CGUAGACUCCAAGCUCAAUTT against Ddx54,inactive: -1.31
11,CCGUCUAUUAAAUAUCUCGTT against Chmp4b,inactive: 0.295
12,GCAUAGCUCAAAUCAAGGATT against Sik2,inactive: 0.353
13,GCUCUAGGCCAGAUGUUACTT against Slc13a3,inactive: -0.476
14,GGUGAAACUUGUUGAUUUUTT against Map4k4,inactive: 1.52
15,CGUCUCUGCUGAGAACAUGTT against Kcnk15,inactive: -1.21
16,GCAUCAGAUUAGGCAGGAATT against 6030498E09Rik,inactive: 1.36
17,GGCUGUGAGCAAUUCAUAGTT against Kdm2b,inactive: -0.376
18,GGGACCAACAUCAAUAAUGTT against Itih4,inactive: 0.664
19,CCGUUAAGCUCACUUGUCUTT against Notch4,inactive: 0.382
20,GCUACAUCGCUCUUAUAGCTT against Foxl1,inactive: 0.0236
21,GGCUCUGCUAUUUCUCCUGTT against Olfr17,inactive: -1.16
22,GGCACUAAAACAAUCGUCATT against Cyp26a1,inactive: -0.702
23,GGAUUUCAAAUCAAGAUGGTT against Serinc3,inactive: -0.94

# 4 entries from above, as tab-separated lines:
row	Sequence	z-score
1	GCUGUUAGGUUCAUUACCATT against Herc2	inactive: -0.117
2	GGAGACCAUCAUGUCUUUATT against Olfr378	inactive: 0.383
3	CCCACUUUUUUUUAGACUGTT against Slc52a3	inactive: 0.278
4	GGAAAGGACGACAUACAGGTT against Zfp12	inactive: -0.213

# Further results.

row,Sequence,z-score
1,GGCGGGUAGAUAUCAUGGGTT against Stn1,inactive: 0.902
2,GGUUGUUCGAGGAAUAUCCTT against Xirp2,inactive: -0.623
3,GCAGGCAUCAUCACGACAUTT against Gprc5c,inactive: 0.402
4,GGGCGUGUCCUUGAAAGAATT against Frem2,inactive: -0.633
5,GGAAAGAAGUGUCAGUUUUTT against Npvf,inactive: 0.848
6,GGCUGUGAGUAAACUUAUATT against Olfr301,inactive: 0.852
7,GCACCUAGCAGACAAAUAATT against Ppp1r3a,inactive: 1.55
8,CCUUGGUUUUCCCACUUCATT against Cstdc1,inactive: -0.268
9,GGUGCUACGAGUUUUAGAATT against Tfap2c,inactive: 0.647
10,GGUGAUGGGAAUAAAAACATT against Polg,inactive: 0.441
11,GGACCCAUCGAAACCUCUATT against Pirb,inactive: -0.0759
12,CAUGAUAGCGAUAGCAAUCTT against Olfr507,inactive: 0.0127
13,GCGGAAAAACAACUGCCAUTT against Otud5,inactive: 1.64
14,GGAAGCUUCCUAAUUCUUGTT against Slc16a1,inactive: -0.304
15,CCGACAUCCUUGAUACGUUTT against Vps35l,active: -2.12
16,GAACUCUUCCAGUGGAAGUTT against Dctpp1,inactive: -1.5
17,GGAAGCAGAGAAAAUCCUGTT against Fbxl12,inactive: -1.12
18,GGAAUGUCAGUAAUCAGUGTT against Cox10,inactive: 0.655
19,GGAACAAAAAGAAAAGGACTT against Map7d3,inactive: 0.679
20,GCGAAGUGGACAUCGUUGUTT against Ikbkb,inactive: -1.56
21,GGAUUUUAGCUGUUCUUGATT against Enpp1,inactive: 0.18
22,GGAGUAUGGGAUAAUUCUATT against Gm5087,inactive: 1.22
23,GGAAGAUAGAGCAUAUAUCTT against Tspan13,inactive: -0.771

row,Sequence,z-score
1,GGAACAUGGCUUAAAGUACTT against Mrpl20,inactive: 0.123
2,GCUUUAUGGGAGACAAAGGTT against 1700022I11Rik,active: 2.53
3,GGAACAGAAAACCAUAUAATT against Snx29,active: -2.54
4,GGUGACCACUUCAUGUCACTT against Tmem138,inactive: -1.28
5,CAAAACCAUCCUUGGAAGUTT against Mrgpra8,inactive: 1.43
6,GCUUAUAGAAAACCAGUAATT against Foxd1,inactive: 0.317
7,CCUUUUACACUCUAGUAUGTT against Ptger4,inactive: -0.349
8,GGCACUGCUAUUAACUACATT against 4933414I15Rik,inactive: -0.906
9,GUGAAUGUGCCAUUUACUUTT against Smco4,inactive: -0.178
10,GGAAAACCAAAGGCUCACCTT against Cyp2c29,inactive: -0.431
11,GGAUGAAGAACUUCUCUGGTT against Tmigd1,inactive: 0.411
12,GGACUCUUUGGAACUACAATT against Nup98,inactive: 0.145
13,GGGCGAGCUCUUCAAGUUUTT against Mapk4,inactive: 1
14,GCAUAAAACAGGGAACUUUTT against Fmo9,inactive: 0.664
15,GGAUGGACUUCGUCAUGAATT against Cplx2,inactive: 0.55
16,GCAUGAUCAAAUUGUAUCUTT against Nde1,active: -2.21
17,GCCCUUCACUCUUCCUUUATT against Olfr137,inactive: 0.254
18,GGUUUCUACAAACAAGCGUTT against Ibtk,inactive: -0.109
19,GGCAUCGUUUCAGACUCGCTT against Abcc9,inactive: 1.11
20,GGGCUCAUCAUUGUUAUUCTT against Olfr394,inactive: -1.13
21,GGAUUAUCAGGAUCUUAUATT against Ate1,inactive: 0.844
22,GGACAAGUGAUCUCCAUGGTT against Tmem245,inactive: -0.74

# Copied from the list.
# Under z-score, CCUUGGUUUUCCCACUUCATT against Cstdc1 shows inactive: -0.268
# Under z-score, CGUAGACUCCAAGCUCAAUTT against Ddx54 shows inactive: -1.31
